According to article PMC3938535:
These are yes or no findings as the source states them, for the method shown. Binding seen in cells or lysates may run through a third protein. Some binding calls cover weakened binding; strength is not graded here. Where a sequence is shown, tags or fusion partners need not be part of it.

Molecular target: T1, GST-VosA (A. nidulans) (UniProt Q5BBX1)
T1 sequence: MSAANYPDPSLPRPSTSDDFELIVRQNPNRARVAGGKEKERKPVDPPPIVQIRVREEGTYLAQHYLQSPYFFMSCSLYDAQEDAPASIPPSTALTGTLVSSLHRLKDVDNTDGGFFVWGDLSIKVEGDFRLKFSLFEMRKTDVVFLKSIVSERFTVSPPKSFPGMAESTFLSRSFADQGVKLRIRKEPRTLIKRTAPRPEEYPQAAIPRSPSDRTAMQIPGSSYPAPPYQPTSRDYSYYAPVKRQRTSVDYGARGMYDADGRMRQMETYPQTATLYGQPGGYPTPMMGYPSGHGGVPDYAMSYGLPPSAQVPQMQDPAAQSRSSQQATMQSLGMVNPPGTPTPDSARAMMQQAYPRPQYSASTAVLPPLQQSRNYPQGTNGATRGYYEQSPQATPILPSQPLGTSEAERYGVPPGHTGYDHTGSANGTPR
Assay: pull-down; GST-VosA on glutathione beads; equal amounts of in vitro translated 35S-labelled proteins added; 4°C overnight; washed three times with lysis buffer; SDS-PAGE and autoradiography; glutathione bead-GST as control; only the target purified

binding: binds
B1: VelC (in vitro translated, 35S-labelled, from pNI42) (protein, UniProt Q5BBM1 1-524)
chain: MTTHVGPQTTLLHQTGQISALIAGEAVQTCEASSCQMSGTPFQQWTYVTEGRYTNARTHPSDEDRRRQTTVSNPRYLAQEPPRFLLPTAQNNAPTMSQSATYSTLPVQGFPEQNRVLDNRSDPKYGPLPATTGSLAQYSIQRPSTSRNMENAGSSSSYYDAPSCSRGSVGSIGRMNDLDSQYSGSTTAFPSPVHSDSSPIYPAIAPISGYQQQLPIHQRHTTSSMPSGFENLLHHHSTSPSPPPRCASSSSRYRLFIRQQPLAARACGAGDRDRRPVDPPPIIQLLLTEFNPNSEKDRSILQDPRFTVGCLLYPVRNPSYLPGSGSGAGSSDTNTNSNDKSRHESMSSYSQLGINLEDSHATGQSTPLLSGKAFVSPFFVDEEPDPNTAPAHPSSTDDSTYDASPRTVTHRFRNRPLPKPPACFFIFSDLSVRTAGLYRLQFRLMNWGSIEDTGQSMPILAEVWSEPFRVCAAKDFPGMRDSSLLTLRLKELGFVELKTRGQGMGKGRRVGIGSSKVSSRARVE
modifications: [35S]-methionine label
